Assay results from article PMC9438803 (Life Science Alliance, 2021).

Protein sequences, listed by entry. Tags and fused reporters are not part of them.
UniProt O95602: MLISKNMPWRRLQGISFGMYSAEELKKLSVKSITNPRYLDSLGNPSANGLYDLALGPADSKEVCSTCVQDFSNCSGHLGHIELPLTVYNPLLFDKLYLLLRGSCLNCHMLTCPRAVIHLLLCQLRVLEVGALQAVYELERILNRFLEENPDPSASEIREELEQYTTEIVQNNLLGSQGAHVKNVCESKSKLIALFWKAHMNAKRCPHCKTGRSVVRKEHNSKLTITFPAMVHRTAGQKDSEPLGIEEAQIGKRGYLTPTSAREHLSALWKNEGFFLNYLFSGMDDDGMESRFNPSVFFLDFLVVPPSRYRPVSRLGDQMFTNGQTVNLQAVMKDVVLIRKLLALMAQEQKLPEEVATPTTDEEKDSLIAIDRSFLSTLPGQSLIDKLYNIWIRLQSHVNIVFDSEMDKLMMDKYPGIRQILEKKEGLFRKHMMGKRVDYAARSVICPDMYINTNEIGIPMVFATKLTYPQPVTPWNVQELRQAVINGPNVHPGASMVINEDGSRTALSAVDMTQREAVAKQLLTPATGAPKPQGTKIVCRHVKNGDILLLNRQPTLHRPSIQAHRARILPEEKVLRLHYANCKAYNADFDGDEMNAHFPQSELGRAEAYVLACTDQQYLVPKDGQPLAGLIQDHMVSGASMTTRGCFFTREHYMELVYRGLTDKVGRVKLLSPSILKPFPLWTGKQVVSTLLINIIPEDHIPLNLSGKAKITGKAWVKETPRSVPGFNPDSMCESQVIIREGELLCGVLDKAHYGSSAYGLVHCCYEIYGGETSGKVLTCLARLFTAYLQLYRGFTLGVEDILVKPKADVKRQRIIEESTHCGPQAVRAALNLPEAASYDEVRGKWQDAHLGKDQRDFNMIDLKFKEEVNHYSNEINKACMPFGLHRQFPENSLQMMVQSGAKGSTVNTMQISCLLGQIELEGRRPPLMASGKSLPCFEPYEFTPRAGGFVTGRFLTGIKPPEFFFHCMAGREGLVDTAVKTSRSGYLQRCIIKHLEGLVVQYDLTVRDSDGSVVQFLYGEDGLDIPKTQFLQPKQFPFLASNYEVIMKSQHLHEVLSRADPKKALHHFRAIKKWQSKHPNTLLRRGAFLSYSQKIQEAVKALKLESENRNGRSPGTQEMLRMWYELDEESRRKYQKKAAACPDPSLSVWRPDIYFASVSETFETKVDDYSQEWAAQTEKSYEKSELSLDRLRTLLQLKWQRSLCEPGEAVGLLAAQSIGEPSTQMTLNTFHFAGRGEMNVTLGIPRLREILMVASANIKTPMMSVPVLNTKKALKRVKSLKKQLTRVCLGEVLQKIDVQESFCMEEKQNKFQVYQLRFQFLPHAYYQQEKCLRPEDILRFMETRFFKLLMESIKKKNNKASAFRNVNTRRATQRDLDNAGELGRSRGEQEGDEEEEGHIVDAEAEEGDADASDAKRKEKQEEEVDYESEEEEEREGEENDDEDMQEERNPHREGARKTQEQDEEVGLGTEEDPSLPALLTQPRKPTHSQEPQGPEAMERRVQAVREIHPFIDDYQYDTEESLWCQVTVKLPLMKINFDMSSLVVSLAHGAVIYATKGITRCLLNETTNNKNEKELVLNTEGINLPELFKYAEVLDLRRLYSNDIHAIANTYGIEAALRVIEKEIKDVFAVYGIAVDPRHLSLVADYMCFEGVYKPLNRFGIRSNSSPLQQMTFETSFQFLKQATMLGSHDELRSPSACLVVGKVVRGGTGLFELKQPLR
UniProt O15446: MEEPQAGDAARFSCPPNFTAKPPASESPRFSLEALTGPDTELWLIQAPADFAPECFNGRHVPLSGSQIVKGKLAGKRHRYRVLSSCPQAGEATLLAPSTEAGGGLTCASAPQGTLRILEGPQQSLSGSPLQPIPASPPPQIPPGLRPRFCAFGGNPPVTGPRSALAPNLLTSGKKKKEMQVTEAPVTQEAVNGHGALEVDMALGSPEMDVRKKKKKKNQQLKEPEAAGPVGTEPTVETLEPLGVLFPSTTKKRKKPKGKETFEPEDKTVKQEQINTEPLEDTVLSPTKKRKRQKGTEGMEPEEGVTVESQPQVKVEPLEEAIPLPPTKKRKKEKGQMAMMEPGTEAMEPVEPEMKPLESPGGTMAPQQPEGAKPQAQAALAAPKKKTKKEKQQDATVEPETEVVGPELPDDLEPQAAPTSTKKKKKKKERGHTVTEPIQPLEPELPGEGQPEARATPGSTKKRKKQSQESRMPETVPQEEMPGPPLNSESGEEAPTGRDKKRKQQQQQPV
UniProt Q9GZS1: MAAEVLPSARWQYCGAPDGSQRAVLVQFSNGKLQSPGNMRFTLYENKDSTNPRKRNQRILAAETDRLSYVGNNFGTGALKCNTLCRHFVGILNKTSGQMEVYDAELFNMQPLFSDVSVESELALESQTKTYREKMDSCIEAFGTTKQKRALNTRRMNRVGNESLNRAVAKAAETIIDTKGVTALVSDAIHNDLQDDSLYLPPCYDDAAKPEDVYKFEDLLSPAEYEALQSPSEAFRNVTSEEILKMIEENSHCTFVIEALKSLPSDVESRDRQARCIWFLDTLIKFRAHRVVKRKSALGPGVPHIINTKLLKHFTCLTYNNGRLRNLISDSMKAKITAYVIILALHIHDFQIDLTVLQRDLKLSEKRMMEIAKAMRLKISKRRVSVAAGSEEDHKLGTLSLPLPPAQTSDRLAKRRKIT
UniProt Q9NYV6: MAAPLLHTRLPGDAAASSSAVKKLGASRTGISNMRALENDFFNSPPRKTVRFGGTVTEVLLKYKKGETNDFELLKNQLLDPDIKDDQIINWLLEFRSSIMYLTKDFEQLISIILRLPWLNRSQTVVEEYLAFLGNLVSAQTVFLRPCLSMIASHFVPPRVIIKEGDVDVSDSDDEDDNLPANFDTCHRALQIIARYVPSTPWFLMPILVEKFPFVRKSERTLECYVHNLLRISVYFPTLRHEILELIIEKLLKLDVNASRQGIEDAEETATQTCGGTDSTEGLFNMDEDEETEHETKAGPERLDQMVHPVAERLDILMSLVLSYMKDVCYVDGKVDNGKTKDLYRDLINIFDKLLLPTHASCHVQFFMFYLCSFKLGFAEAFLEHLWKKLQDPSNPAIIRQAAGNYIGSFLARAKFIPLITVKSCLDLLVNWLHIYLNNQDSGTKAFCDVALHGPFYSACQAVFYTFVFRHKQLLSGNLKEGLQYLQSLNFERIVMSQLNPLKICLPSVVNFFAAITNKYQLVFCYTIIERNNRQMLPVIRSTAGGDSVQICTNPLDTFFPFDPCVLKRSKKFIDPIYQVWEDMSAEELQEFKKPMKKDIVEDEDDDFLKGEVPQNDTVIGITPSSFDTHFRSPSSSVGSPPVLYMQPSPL

Target: RNA polymerase I subunit RPA1 with genomic C-terminal sfGFP fusion (human (endogenous in HeLa)) (UniProt O95602)
Assay: affinity purification with mass spectrometry; RPA1-sfGFP captured from HeLa POLR1A-sfGFP whole-cell lysate on GFP-Trap Dynabeads, washes with 420 mM NaCl, elution with 3C protease; gel bands identified by mass spectrometry

Row | binding | Substance
1 | binds | RNA polymerase I subunit RPA34 (from UniProt O15446 1-510)
2 | binds | RNA polymerase I subunit RPA49 (from UniProt Q9GZS1 1-419)
3 | binds | initiation factor RRN3 (from UniProt Q9NYV6 1-651)

Results are given in words; binding and its absence hold for the method and conditions named. Binding seen in cells or lysates may run through a third protein. Here binding means that the protein was enriched with, or labelled near, the bait; the list need not be complete.
